In PubChem BioAssay AID2551 (National Center for Advancing Translational Sciences (NCATS), 2010):
Among all 310,000 compounds or so, about 17,000 (5.5%) were called active. Inconclusive means that the source gave no clear call. Such entries were picked first, then a sample of the others. Calls follow the shape of the dose curve; as a rule, active = well fitted inhibition curve with a large enough effect; inconclusive = small, poorly fitted or top-dose-only effect, or effect the other way; inactive = no such curve, though single readings can be large or run the other way. Where the call is inconclusive, the potency comes from a doubtful curve fit.

Amino acid sequences for entries named in this document (tags omitted). A change or cut given only in a name is not applied to a line headed by its entry.
UniProt P51450: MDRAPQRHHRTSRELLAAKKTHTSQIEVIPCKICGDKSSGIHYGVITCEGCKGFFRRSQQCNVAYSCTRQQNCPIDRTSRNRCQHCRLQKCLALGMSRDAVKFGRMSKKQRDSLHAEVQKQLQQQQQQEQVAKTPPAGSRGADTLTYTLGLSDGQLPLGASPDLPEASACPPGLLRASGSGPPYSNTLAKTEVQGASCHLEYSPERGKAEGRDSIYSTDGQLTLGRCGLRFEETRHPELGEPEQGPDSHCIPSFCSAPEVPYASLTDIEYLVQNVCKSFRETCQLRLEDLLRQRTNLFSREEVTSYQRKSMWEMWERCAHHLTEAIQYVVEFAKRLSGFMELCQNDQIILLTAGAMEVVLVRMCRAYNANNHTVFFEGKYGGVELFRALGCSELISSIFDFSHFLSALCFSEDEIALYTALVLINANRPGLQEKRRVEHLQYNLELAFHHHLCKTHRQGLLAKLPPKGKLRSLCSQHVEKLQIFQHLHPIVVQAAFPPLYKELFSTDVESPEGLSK

Each compound was assayed against Nuclear receptor ROR-gamma (Mus musculus) (UniProt P51450) (assay: qHTS for inhibitors of ROR gamma transcriptional activity). Conditions: Drosophila S2 Gal4-RORgamma UAS-luciferase reporter, 20 h; series mostly up to 53.6 µM.
Summary of the method: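 Drosophila Schneider cells stably carrying a metallothionein-driven Gal4 DBD–ROR gamma fusion and a UAS-Photinus luciferase reporter were exposed to compound for 1 hr, then induced with copper sulfate (700 uM final) for 20 hr at ambient temperature before luminescence reading.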
Also: nearly all actives have a fitted effect of over 60% in size.
Potency is read from the fitted curve at half-maximal effect.

Potency, inactive:
COc1ccc(C2CC(c3ccccc3)=NN2c2ccc(Cl)c(C(=O)O)c2)cc1 (stereo unspecified)
COc1ccccc1NC(=O)N1CCCC1C(=O)NCc1ccc(F)cc1 (stereo unspecified)
CCCOP(=O)(c1ccc(N(C)C)cc1)C(O)c1ccc(Br)cc1 (stereo unspecified)
CC1CCN(c2c(NCC3CCC(C(=O)Nc4ccccn4)CC3)c(=O)c2=O)CC1 (stereo unspecified)
CNC(=O)/C(C#N)=C/c1c(N2CCCCCC2)nc2c(C)cccn2c1=O
CCCCC(=O)NC(=S)Nc1ccc(Cl)c(C(=O)O)c1
CC(C)(C)c1ccc(C(=O)NC(CC(=O)O)c2ccc(OC3CCCC3)cc2)cc1 (stereo unspecified)
Cc1ccc(/C=C2/C(=O)C3(C)CCC2C3(C)C)cc1 (stereo unspecified)
COc1ccc(N2C(=O)c3ccc(C(=O)Nc4cc(OC)ccc4OC)cc3C2=O)cc1
CN(C)c1ccc(-c2nnc(-c3ccc(S(=O)(=O)C(F)F)cc3)o2)cc1
Cc1ccc(/C=C2\SC(=S)N(CCC(=O)N3CCOCC3)C2=O)cc1
COC(=O)c1ccc(Nc2nc(C)cc(C)n2)cc1
CC1(C)CCC[C@@]2(C)C1CC[C@@](C)(O)[C@@H]2CC[C@@](C)(O)C1CO1 (stereo partly specified)
COc1ccccc1NC(=O)Cc1nnc(SCC(=O)c2ccccc2)n1C
COC(=O)c1ccc(COc2cc([N+](=O)[O-])cc3cccnc23)o1
NCCCNC(=O)c1ccc(/C=N/O)nc1
CCOC(=O)N1CCN(C(=O)CSc2nnc(-c3ccc(C)c(C)c3)o2)CC1

Potency, inconclusive:
O=C(c1cc2ccccc2oc1=O)N(Cc1ccco1)C1CCS(=O)(=O)C1 (stereo unspecified) 14.1 µM [activator, partial curve, poor fit]
O=C(NN(c1ccccc1)c1ccccc1)c1ccc([N+](=O)[O-])o1 15.8 µM [inhibitor, partial curve]
Cc1ccc(NC(=O)C2CCN(S(=O)(=O)c3cccs3)CC2)c(O)c1 12.6 µM [activator, partial curve]
Cc1ccc(/C(N)=N/OC(=O)c2cccs2)cc1 31.6 µM [inhibitor, single point]
O=c1c2cn[nH]c2nc(SCc2cc(=O)n3cc(Br)ccc3n2)n1-c1ccc(Br)cc1 11.2 µM [activator, partial curve]
COc1cccc(NC(=S)NCc2ccccn2)c1 10 µM [inhibitor, partial curve, poor fit]
O=C(Nc1nnc(Cc2ccccc2)s1)c1ccccc1 1.41 µM [activator, partial curve, poor fit]
O=C(NC1CCCc2ccccc21)C1CCN(c2nnc(-n3cccc3)s2)CC1 (stereo unspecified) 1 µM [activator, partial curve]
Cc1cc(C)c(S(=O)(=O)NC2CC(C)(C)NC(C)(C)C2)cc1C 7.08 µM [inhibitor, single point]
CCOc1ccc(NC(=O)C2C3CCC4C(CCC32)C4(Cl)Cl)cc1 (stereo unspecified) 14.1 µM [activator, partial curve, poor fit]
CC(C)NC(=O)NC(=O)COC(=O)/C=C/c1ccc2c(c1)OCO2 17.8 µM [activator, single point]
COc1ccc(NC(=S)NCC2CCCO2)c(C)c1 (stereo unspecified) 11.2 µM [inhibitor, partial curve]
Cc1nnc(SC(C)C(=O)Nc2ccc(S(=O)(=O)NC3CCCCC3)cc2)s1 (stereo unspecified) 2.24 µM [activator, full curve]
COc1ccc(/C=C/C(=O)c2cc(Br)ccc(=O)c2O)cc1 31.6 µM [inhibitor, single point]
COc1ccc(OC)c(NC(=O)C2CCC(CNc3c(N4CCOCC4)c(=O)c3=O)CC2)c1 (stereo unspecified) 25.1 µM [inhibitor, single point]
COc1cc(/C=C2/C(=O)NN(c3cccc(Cl)c3)C2=O)cc(Br)c1O 14.1 µM [inhibitor, partial curve]
NC(=O)c1c(NC(=O)Cc2cccs2)sc2c1CCC2 3.98 µM [activator, partial curve]
CC(=O)c1cccc(NC(=O)COc2ccc(S(=O)(=O)N3CCCCC3)cc2)c1 20 µM [activator, single point]
Cc1cc(C(=O)Nc2ccc(S(=O)(=O)N3CCOCC3)cc2)ccc1[N+](=O)[O-] 12.6 µM [activator, partial curve]
CCCCNC(=O)CSc1nc(Cc2ccccc2)nc2ccccc12 5.62 µM [activator, partial curve]
Cn1c(=O)cc(OCCCC(=O)NCc2cccnc2)c2ccccc21 20 µM [inhibitor, single point]
Cc1ccc(OCC(O)Cn2c(NCCc3ccccc3)nc3c2c(=O)[nH]c(=O)n3C)cc1 (stereo unspecified) 11.2 µM [inhibitor, partial curve]
Nc1cc(=O)[nH]c(SCc2csc(-c3ccccc3)n2)n1 17.8 µM [activator, single point]
COc1ccc(-c2cc(-c3n[nH]c(=S)n3-c3cccc4ccccc34)[nH]n2)cc1 22.4 µM [inhibitor, partial curve, poor fit]
Clc1ccc(C[n+]2cc(-c3ccc(Cl)cc3)n3c2CCC3)cc1 17.8 µM [activator, single point]
CCOC(=O)c1nc(NCCc2ccccc2)sc1C 35.5 µM [inhibitor, single point]
CC(C)c1cc(NC(=O)CCl)on1 35.5 µM [inhibitor, single point]
Cc1ccc(CCN2CC(C(=O)NCc3ccco3)CC2=O)cc1 (stereo unspecified) 1.78 µM [activator, partial curve]
COc1cc(OC)c(NC(=O)CCc2nc(-c3cccs3)no2)cc1Cl 10 µM [activator, single point]
Cc1ccc(Oc2ccc(OCC(=O)NC3CCS(=O)(=O)C3)cc2)cc1 (stereo unspecified) 35.5 µM [activator, single point]
Cc1ccc(C(=O)N/N=C(\CC(C)C)c2ccccc2)cc1 15.8 µM [inhibitor, single point]
O=c1c(O)c(-c2ccc(O)cc2)oc2ccc(O)cc12 12.6 µM [inhibitor, partial curve]
Cc1ccc(NC(=O)c2ccc(COc3ccccc3)o2)nc1 2.82 µM [activator, partial curve, poor fit]
COc1ccccc1C(=O)C1CCCN(C(=O)c2cc(CC(C)C)nc(C)n2)C1 (stereo unspecified) 35.5 µM [activator, single point]
CCOC(=O)C1C(c2cccc(Cl)c2Cl)NC(=O)NC1(O)C(F)(F)F (stereo unspecified) 6.31 µM [inhibitor, single point]
CC(C)CSc1nnc2c(n1)[nH]c1ccccc12 0.0063 µM [activator, full curve, poor fit]
O=C(CSc1nc2[nH]ncc2c(=O)n1-c1ccccc1)N1CCCCCC1 12.6 µM [activator, partial curve]
Cc1nc(N/N=C/c2ccc(O)cc2O)cc(N2CCOCC2)n1 14.1 µM [inhibitor, single point]
Cc1sc(NC(=O)CN(C)C2CCCCC2)nc1-c1ccc2c(c1)CCN2S(=O)(=O)c1ccccc1 14.1 µM [inhibitor, single point]
CCNC(=O)c1ccccc1SCC(=O)Nc1ccc(F)cc1 25.1 µM [inhibitor, single point]
Clc1ccccc1-c1nc(/C=N/N2CCOCC2)c2ccccn12 35.5 µM [inhibitor, single point]
Cc1csc(NC(=O)Cc2c[nH]c3ccccc23)n1 12.6 µM [activator, partial curve]
COc1cc(/C=N/N2CCN(C3c4ccccc4-c4ccccc43)CC2)cc(OC)c1O 35.5 µM [inhibitor, single point]
CCOC(=O)c1ccccc1NC(=S)N1CC(C)CC(C)C1 (stereo unspecified) 12.6 µM [inhibitor, single point]
Cc1ccc(O/C=C2\OC(=O)c3ccccc32)cc1 4.47 µM [activator, full curve, poor fit]

Quoted at random: two entries already listed, in no set order.
Potency, inconclusive:
Cc1ccc(CCN2CC(C(=O)NCc3ccco3)CC2=O)cc1 (stereo unspecified) 1.78 µM [activator, partial curve]
Cc1cc(C)c(S(=O)(=O)NC2CC(C)(C)NC(C)(C)C2)cc1C 7.08 µM [inhibitor, single point]

Following part:

Potency, active:
CC(C)CN1CN(Cc2ccco2)CNC1=S 2.24 µM
CCCn1c(SC(C(=O)Nc2cc(C)ccc2OC)c2ccccc2)nc2ccccc2c1=O (stereo unspecified) 20 µM
S=c1[nH]nc(-c2ccco2)n1/N=C/c1ccc(Cl)cc1Cl 5.62 µM
CCCc1cc(N2CCN(C(=O)c3ccco3)CC2)n2c(nc3ccccc32)c1C#N 4.47 µM
Cc1nc(NCc2ccccc2)c2nc(-c3ccccc3)n(C(C)CN(C)C)c2n1 (stereo unspecified) 11.2 µM
CCc1nnc(NC(=O)c2ccc(S(=O)(=O)N(CCOC)CCOC)cc2)o1 2.24 µM
C=C(C)COc1ccc(-c2n[nH]c(C)c2-c2ccccc2OC)c(O)c1 14.1 µM
S=C1NC2(CCCC2)Nc2ccccc21 0.355 µM
COc1ccccc1NC(=S)N/N=C/c1cccc(C)c1 0.891 µM
